Measurements reported in PubChem BioAssay AID504793 (Drosophila RNAi Screening Center, 2011)

Aim: 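Knock-downs allowing continued mitosis even though DNA is damaged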 (primary screen)
Cells: Drosophila S2R+ cells
Reagent: long dsRNA against Drosophila genes, about 0.25 µg dsRNA per well
Time to read-out: 4 days of dsRNA, then 4 hours of drug before read-out
Challenge: doxorubicin 0.5 µM for 4 hours to cause double-strand breaks, in cells also given a low, harmless dose of dsRNA against nbs to sensitise the assay
Measurement: 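Mitotic index as the number of phospho-histone H3-positive cells in each well following doxorubicin, given as raw counts without normalisation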
Reading the numbers: mitotic cells: higher = more cells in mitosis, weaker G2 arrest
Hit rule: 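a call needs confirmation in secondary tests, with other dsRNAs and a check of mitotic timing without damage, not just a high primary count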
Meaning of the calls: active = confirmed in follow-up tests; inactive = not confirmed
The screen tested about 23,000 reagents; this is a random part of those with a known target gene and a result. Over the whole deposit, 62 (0.27%) are marked active. 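Calls come from follow-up tests whose scores are not deposited, so confirmed genes may have low counts here; counts are not normalised per plate.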 Raw values are not corrected between plates. Reagents against one gene are numbered here. A plus sign joins genes that one reagent is predicted to hit.

gene,dsRNA no.,"mitotic cells, replicate 1","mitotic cells, replicate 2",activity call
CG4576,1,9,,inactive
CG4576,2,4,,inactive
asun (asunder),1,9,,inactive
CanB2 (Calcineurin B2),1,5,,inactive
CanB2 (Calcineurin B2),2,3,,inactive
Ugt37C1 (UDP-glycosyltransferase family 37 member C1),1,5,,inactive
Ugt37C1 (UDP-glycosyltransferase family 37 member C1),2,4,,inactive
unc-13,1,12,,inactive
unc-13,2,3,,inactive
unc-13,3,2,,inactive
CG32821 (retired record),1,6,,inactive
subdued,1,7,,inactive
S-Lap2 (Sperm-Leucylaminopeptidase 2),1,2,,inactive
CG33477,1,9,,inactive
CG14511,1,9,,inactive
CG14511,2,6,,inactive
CG14721,1,3,,inactive
CG5569,1,7,,inactive
l(1)G0196 (lethal (1) G0196),1,8,,inactive
l(1)G0196 (lethal (1) G0196),2,4,,inactive
l(1)G0196 (lethal (1) G0196),3,9,,inactive
CG32625,1,6,,inactive
CG32625,2,10,,inactive
uri (unconventional prefoldin RPB5 interactor),1,6,,inactive
uri (unconventional prefoldin RPB5 interactor),2,9,,inactive
mod(mdg4) + pre-mod(mdg4)-Z + pre-mod(mdg4)-T,1,17,,inactive
mod(mdg4) + pre-mod(mdg4)-Z + pre-mod(mdg4)-T,2,8,,inactive
CG12728,1,8,,inactive
REG (Proteasome regulator gamma),1,11,,inactive
nompC (no mechanoreceptor potential C),1,5,,inactive
CG5746,1,5,,inactive
CG5746,2,6,,inactive
CG15021,1,10,,inactive
CG15021,2,15,,inactive
CG31174,1,8,,inactive
CG14406,1,5,,inactive
CG18577,1,9,,inactive
Cyp49a1 (Cytochrome P450 49a1),1,3,,inactive
Cyp49a1 (Cytochrome P450 49a1),2,7,,inactive
Snx16 (Sorting nexin 16),1,6,,inactive
CG42561,1,8,,inactive
eco (Establishment of cohesion),1,13,,inactive
CG4594,1,6,,inactive
hyd (hyperplastic discs),1,3,,inactive
hyd (hyperplastic discs),2,,,inactive
CR31292 (pseudo),1,4,,inactive
cuff (cutoff),1,3,,inactive
LysD + LysB + LysC (retired record),1,10,,inactive
IntS3 (Integrator 3),1,11,,inactive
unc-104 (uncoordinated-104),1,5,,inactive
Ir68b (Ionotropic receptor 68b),1,2,,inactive
CG32762,1,13,,inactive
CG32762,2,4,,inactive
EMC3 (ER membrane protein complex subunit 3),1,5,,inactive
EMC3 (ER membrane protein complex subunit 3),2,4,,inactive
CG12520,1,10,,inactive
CG1603,1,4,,inactive
CG1603,2,5,,inactive
lncRNA:CR31526 (long non-coding RNA:CR31526),1,9,,inactive
lncRNA:CR31526 (long non-coding RNA:CR31526),2,9,,inactive
TpnC47D (Troponin C at 47D),1,5,,inactive
CG4069,1,8,,inactive
Rbm13 (RNA-binding motif protein 13),1,9,,inactive
Rbm13 (RNA-binding motif protein 13),2,2,,inactive
dsx (doublesex),1,14,,inactive
dsx (doublesex),2,8,,inactive
dsx (doublesex),3,10,,inactive
dsx (doublesex),4,3,,inactive

Entries above whose target name starts with U or u (8):
gene,dsRNA no.,"mitotic cells, replicate 1","mitotic cells, replicate 2",activity call
Ugt37C1 (UDP-glycosyltransferase family 37 member C1),1,5,,inactive
Ugt37C1 (UDP-glycosyltransferase family 37 member C1),2,4,,inactive
unc-13,1,12,,inactive
unc-13,2,3,,inactive
unc-13,3,2,,inactive
uri (unconventional prefoldin RPB5 interactor),1,6,,inactive
uri (unconventional prefoldin RPB5 interactor),2,9,,inactive
unc-104 (uncoordinated-104),1,5,,inactive

More results follow:
gene,dsRNA no.,"mitotic cells, replicate 1","mitotic cells, replicate 2",activity call
"Edem2 (ER degradation enhancer, mannosidase alpha-like 2)",1,5,,inactive
"Edem2 (ER degradation enhancer, mannosidase alpha-like 2)",2,10,,inactive
CG14624,1,10,,inactive
CG14624,2,10,,inactive
His2B:CG33870 + His2B:CG33868 + His2B:CG33882 + 21 more,1,11,,inactive
Pdhb (Pyruvate dehydrogenase E1 beta subunit),1,7,,inactive
Pdhb (Pyruvate dehydrogenase E1 beta subunit),2,5,,inactive
ClpP (Caseinolytic protease proteolytic subunit),1,8,,inactive
CG10116,1,2,,inactive
dnk (deoxyribonucleoside kinase),1,7,,inactive
dnk (deoxyribonucleoside kinase),2,1,,inactive
CG11159,1,5,,inactive
"Sr-CI (Scavenger receptor class C, type I)",1,11,,inactive
"Sr-CI (Scavenger receptor class C, type I)",2,7,,inactive
CG10041,1,9,,inactive
CG10041,2,4,,inactive
Cals (Calsyntenin),1,3,,inactive
Cals (Calsyntenin),2,6,,inactive
Ilp6 (Insulin-like peptide 6),1,16,,inactive
se (sepia),1,4,,inactive
mRpS10 (mitochondrial ribosomal protein S10),1,7,,inactive
CG8260,1,13,,inactive
CG7215 + Prx5,1,5,,inactive
CG7215 + Prx5,2,8,,inactive
CG16739,1,4,,inactive
SKIP (Shal K[+] channel interacting protein),1,6,,inactive
SKIP (Shal K[+] channel interacting protein),2,7,,inactive
SKIP (Shal K[+] channel interacting protein),3,13,,inactive
SKIP (Shal K[+] channel interacting protein),4,11,13,inactive
SKIP (Shal K[+] channel interacting protein),5,10,,inactive
betaTub97EF (beta-Tubulin at 97EF),1,157,,inactive
betaTub97EF (beta-Tubulin at 97EF),2,12,,inactive
betaTub97EF (beta-Tubulin at 97EF),3,15,,inactive
Gas41,1,7,,inactive
ProtA (Protamine A),1,9,,inactive
CG33341,1,16,,inactive
CG33341,2,7,,inactive
CG9799,1,8,,inactive
Ir94a (Ionotropic receptor 94a),1,2,,inactive
Ir94a (Ionotropic receptor 94a),2,8,,inactive
pncr003:2L (retired record),1,11,11,inactive
pncr003:2L (retired record),2,4,8,inactive
pncr003:2L (retired record),3,8,,inactive
